Some results were stated once for a whole list of compounds, not compound by compound. Some compounds share one range, which may span the group rather than tell each member.
Assay: thermal hysteresis (TH) activity and dynamic ice shaping, Clifton Nanoliter Osmometer
Conditions: compounds 3 and 4 at 1 mg/mL, compounds 5 and 6 at 0.01 mg/mL
Description: As both compound 4 (at 22 mM) and compound 5 (at 0.5 mM) are novel potent low molecular weight inhibitors of ice recrystallization, whether they were interacting directly with the ice lattice was investigated. Carbohydrate derivatives (compounds 3-6) were examined for TH activity using a Clifton Nanoliter Osmometer. See Tam, R. et al. (2009) “Solution Conformation of C-Linked Antifreeze Glycoprotein Analogues and Modulation of Ice Recrystallization” J. Am. Chem. Soc. 131:15747-15753; Tam, R. et al. (2008) “Hydration Index—A Better Parameter for Explaining Small Molecule Hydration in Inhibition of Ice Recrystallization” J. Am. Chem. Soc. 130: 17494-17501.
In this assay a single droplet of the sample in water was suspended in the center of an oil-filled well in a sample holder plate. The sample was then rapidly frozen using a thermoelectrically controlled microscope stage, then the temperature was raised and the sample melted until only a single ice crystal remained. Once a single ice crystal was obtained, its growth and behavior upon increasing/decreasing the temperature was viewed under a microscope.
The above synthesized C-linked AFGP analogues and carbohydrate derivatives were assessed for TH activity at 10 mg/mL. Compounds 3-6 could not be assessed for TH activity at this concentration due to their amphiphilic nature. During the process of melting the frozen sample to obtain a single ice crystal, the droplet dissolved in the oil resulting in one phase. Thus, compounds 3 and 4 were assayed at a concentration of 1 mg/mL, and compounds 5 and 6 were assayed at a concentration of 0.01 mg/mL. […] The absence of dynamic ice shaping indicated there was no interaction with the ice lattice.
Many AF(G)Ps have measurable TH gaps at concentrations as low as 0.5 mg/mL. However, only hyperactive AFPs have been reported to have measurable TH activity at concentrations of 0.01-0.05 mg/mL. Therefore, native AFGP-8 was assayed at a concentration of 0.01 mg/mL for dynamic ice shaping and TH activity. […] However, as compounds 5 and 6 could not be tested for TH activity at a concentration higher than 0.01 mg/mL, solid-state NMR was used to investigate interactions with the ice lattice.

SMILES	TH activity or dynamic ice shaping
CCCCCCCCO[C@@H]1OC(CO)[C@@H](O)[C@H](O)C1O (stereo partly drawn) [compound 3, n-octyl-β-D-glucopyranoside]	None of these derivatives (compounds 3-6) exhibited TH activity or dynamic ice shaping
CCCCCCCCNC(=O)[C@H](O)[C@@H](O)[C@H](O)[C@H](O)CO [compound 5, N-octyl-D-gluconamide]	None of these derivatives (compounds 3-6) exhibited TH activity or dynamic ice shaping
CCCCCCCCNC(=O)[C@H](O)[C@@H](O)[C@@H](O)[C@H](O)CO [compound 6, N-octyl-D-galactonamide]	None of these derivatives (compounds 3-6) exhibited TH activity or dynamic ice shaping
CCCCCCCCO[C@@H]1OC(CO)[C@H](O)[C@H](O)C1O (stereo partly drawn) [compound 4, n-octyl-β-D-galactopyranoside]	None of these derivatives (compounds 3-6) exhibited TH activity or dynamic ice shaping

Source: patent US10004222B2, “Small molecule ice recrystallization inhibitors and methods of use thereof” (THE UNIVERSITY OF OTTAWA, priority 2012, dated 2018)
